Taken from: PubChem BioAssay AID504808 (Drosophila RNAi Screening Center, 2011)
In all, the deposit lists about 21,000 reagents; this is a random part of those that have a named target and a result. Of all reagents, 18 (0.084%) were called active. 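Raw counts without plate normalisation, one of two replicates; the ratio scores behind the calls were not deposited.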 Names joined by + are all predicted targets of the reagent. Not given: the amount of reagent, the time to read-out.

Screen: 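Chromatin factors that keep E2F targets switched off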 (primary screen)
System: Drosophila S2 cells
Reagents: long dsRNA against Drosophila genes
Detection: 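Dual luciferase plate measurements; E2F-specific signal taken as firefly over Renilla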
Direction: E2F firefly: higher = more E2F reporter activity; Renilla normaliser: higher = more normaliser reporter signal
Rule for the call: 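Called active if the normalised E2F reporter went up by over 50%; the cutoff is arbitrary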

The opening 2 entries, ahead of the listing:
| gene knocked down | amplicon | E2F firefly, rep 1 | Renilla normaliser, rep 1 | activity call |
| --- | --- | --- | --- | --- |
| Tim17b1 | DRSC12179 | 1.16e5 | 5267 | inactive |
| GNBP3 | DRSC11170 | 92620 | 3954 | inactive |

The list itself, repeating the preview:
| gene knocked down | amplicon | E2F firefly, rep 1 | Renilla normaliser, rep 1 | activity call |
| --- | --- | --- | --- | --- |
| Tim17b1 | DRSC12179 | 1.16e5 | 5267 | inactive |
| GNBP3 | DRSC11170 | 92620 | 3954 | inactive |
| CG13862 | DRSC14712 | 1.20e5 | 7729 | inactive |
| nuf | DRSC11379 | 1.54e5 | 7421 | inactive |
| RpS18 | DRSC07540 | 83005 | 4551 | inactive |
| CG13364 | DRSC17898 | 1.30e5 | 6300 | inactive |
| CG13364 | DRSC21263 | 1.47e5 | 6136 | inactive |
| natalisin | DRSC14966 | 77169 | 4573 | inactive |
| natalisin | DRSC14967 | 1.23e5 | 6009 | inactive |
| CG16781 | DRSC18117 | 73478 | 4248 | inactive |
| CG9806 | DRSC18444 | 1.36e5 | 5927 | inactive |
| Mgat3 | DRSC01305 | 1.31e5 | 6573 | inactive |
| CG1774 | DRSC15258 | 1808 | 916 | inactive |
| nAChRalpha5 | DRSC01360 | 1.35e5 | 5468 | inactive |
| nAChRalpha5 | DRSC01946 | 1.01e5 | 4360 | inactive |
| nAChRalpha5 | DRSC01947 | 1.07e5 | 4259 | inactive |
| PIG-K | DRSC18496 | 1.35e5 | 6682 | inactive |
| swa | DRSC18842 | 8049 | 924 | inactive |
| tbrd-3 | DRSC04295 | 1.05e5 | 4523 | inactive |
| dco | DRSC16929 | 1304 | 940 | inactive |
| peo | DRSC05995 | 2719 | 193 | inactive |
| vilya | DRSC18588 | 1.16e5 | 5407 | inactive |
| Ctns | DRSC15175 | 1.07e5 | 6539 | inactive |
| Mkp + CG34140 | DRSC08585 | 73223 | 3370 | inactive |
| CG14817 | DRSC18547 | 1.20e5 | 5495 | inactive |
| Zip48C | DRSC06314 | 126 | 27 | inactive |
| CG15734 | DRSC19701 | 1.47e5 | 6669 | inactive |
| CG12010 | DRSC08218 | 98227 | 4348 | inactive |
| CG12118 | DRSC17813 | 8787 | 772 | inactive |
| muc | DRSC02832 | 1.55e5 | 4979 | inactive |
| CG12643 | DRSC17849 | 1.30e5 | 6278 | inactive |
| CG14572 | DRSC11733 | 1.49e5 | 7474 | inactive |
| aurB | DRSC03548 | 56115 | 193 | inactive |
| Tmtc1 | DRSC00147 | 1.32e5 | 5290 | inactive |
| Tmtc1 | DRSC00151 | 1.13e5 | 5108 | inactive |
| Tmtc1 | DRSC00314 | 1.68e5 | 5942 | inactive |
| Tmtc1 | DRSC00411 | 1.71e5 | 5696 | inactive |
| CG10445 | DRSC14247 | 1.40e5 | 6333 | inactive |
| CG10286 | DRSC12520 | 83928 | 3695 | inactive |
| CG31789 | DRSC01645 | 1.45e5 | 5765 | inactive |
| mahe | DRSC17755 | 8253 | 768 | inactive |
| Prosalpha5 | DRSC07514 | 63571 | 3549 | inactive |
| pho | DRSC17219 | 1.31e5 | 7543 | inactive |
| yem | DRSC14865 | 1.22e5 | 7925 | inactive |
| yem | DRSC17097 | 1.22e5 | 10764 | inactive |
| retm | DRSC03252 | 94618 | 4121 | inactive |
| Pen | DRSC03396 | 91344 | 3617 | inactive |
| TotZ | DRSC13450 | 80798 | 2943 | inactive |
| Mdh2 (retired record) | DRSC16361 | 1.39e5 | 6671 | inactive |
| RpS14a | DRSC18710 | 53986 | 5375 | inactive |
| MetRS-m | DRSC16443 | 63095 | 3363 | inactive |
| MetRS-m | DRSC16515 | 1.15e5 | 5798 | inactive |
| Fpgs2 | DRSC00600 | 1.48e5 | 5054 | inactive |
| eEF1beta | DRSC07419 | 69142 | 3749 | inactive |
| syd | DRSC10963 | 67555 | 3754 | inactive |
| Osi13 | DRSC12281 | 1.30e5 | 5985 | inactive |
| eIF4H2 | DRSC14582 | 1666 | 868 | inactive |
| Dic4 | DRSC10317 | 1.61e5 | 7249 | inactive |
| baz | DRSC20309 | 2.25e5 | 6165 | inactive |
| beta3GalTII | DRSC07253 | 1.50e5 | 4394 | inactive |
| fiz | DRSC20188 | 7908 | 644 | inactive |
| drk | DRSC07606 | 139 | 29 | inactive |
| Calr | DRSC16614 | 1.40e5 | 7860 | inactive |
| CG14237 | DRSC14731 | 96274 | 6039 | inactive |
| CG9664 | DRSC00725 | 79039 | 3962 | inactive |
| Sry-alpha | DRSC16867 | 1.09e5 | 5083 | inactive |
| Spn77Bb + Spn77Bc | DRSC10689 | 1.26e5 | 7492 | inactive |
| Spn77Bb + Spn77Bc | DRSC11793 | 1.39e5 | 7829 | inactive |
| CG9068 | DRSC07329 | 1.39e5 | 5059 | inactive |
| CG3746 | DRSC04412 | 1.08e5 | 4507 | inactive |
| hoe1 | DRSC00265 | 1.02e5 | 4387 | inactive |
| hoe1 | DRSC00333 | 1.48e5 | 4987 | inactive |
| hoe1 | DRSC00353 | 1.37e5 | 5943 | inactive |
| CG17883 | DRSC07838 | 91539 | 4252 | inactive |
| ND-49L | DRSC14437 | 87104 | 4929 | inactive |
| mmy | DRSC02002 | 89331 | 3737 | inactive |
| CG7800 | DRSC16315 | 1.29e5 | 5977 | inactive |
| snsl | DRSC00543 | 1.39e5 | 5097 | inactive |
| CG42570 | DRSC09391 | 1.36e5 | 4114 | inactive |
| ClC-b | DRSC07220 | 1.05e5 | 4079 | inactive |
| CG4957 | DRSC02793 | 1.59e5 | 5484 | inactive |
| CG9497 | DRSC03234 | 98040 | 3502 | inactive |
| CG1542 | DRSC15035 | 1594 | 1196 | inactive |
| PH4alphaNE3 | DRSC16541 | 1834 | 780 | inactive |
